# Patent publication US8778342B2, “Antibody therapy” (Immunomedics, Inc., priority 2002, dated 2014)
# At least one compound was matched to its structure with a doubt left.
# Tested on: TT (human medullary thyroid) tumor cells
# Assay type: in vivo
# Details: DTIC 75 μg/dose days 2, 3, 4; hMN-14 100 μg/dose from day 2; nude mice
smiles,measurement,value
"CN(C)/N=N/c1[nH]cnc1C(N)=O [DTIC, dacarbazine]",delay / inhibition of tumor growth,Significant delays in tumor growth
